Results taken from paper PMC5258789.

Molecular target: Gαi protein (human (endogenous in heart tissue))
Assay: co-IP; human heart tissue lysate (50 mM Tris HCl pH 7.4, 150 mM NaCl, 1 mM EDTA, 1% Triton X-100) incubated with antibodies against Gα subunits (2 µg each) overnight at 4 °C in a Catch & Release v2.0 spin column; denaturing elution; western blot for OR51E1; unspecific IgG as control

binding: binds weakly
B1: odorant receptor OR51E1 (receptor, UniProt Q8TCB6 1-318)
chain: MMVDPNGNESSATYFILIGLPGLEEAQFWLAFPLCSLYLIAVLGNLTIIYIVRTEHSLHEPMYIFLCMLSGIDILISTSSMPKMLAIFWFNSTTIQFDACLLQMFAIHSLSGMESTVLLAMAFDRYVAICHPLRHATVLTLPRVTKIGVAAVVRGAALMAPLPVFIKQLPFCRSNILSHSYCLHQDVMKLACDDIRVNVVYGLIVIISAIGLDSLLISFSYLLILKTVLGLTREAQAKAFGTCVSHVCAVFIFYVPFIGLSMVHRFSKRRDSPLPVILANIYLLVPPVLNPIVYGVKTKEIRQRILRLFHVATHASEP

Results are given in words; binding and its absence hold for the method and conditions named. Binding seen in cells or lysates may run through a third protein. Binding calls can cover weak binding; strength is not graded here.
